Results are given in words; binding and its absence hold for the method and conditions named. Binding seen in cells or lysates may run through a third protein. Some entries that bind do so weakly or less than the wild type.
Molecular target: T1, N-acetyltransferase 10 (NAT10), endogenous (human (endogenous in SW620)) (UniProt Q9H0A0)
T1 sequence: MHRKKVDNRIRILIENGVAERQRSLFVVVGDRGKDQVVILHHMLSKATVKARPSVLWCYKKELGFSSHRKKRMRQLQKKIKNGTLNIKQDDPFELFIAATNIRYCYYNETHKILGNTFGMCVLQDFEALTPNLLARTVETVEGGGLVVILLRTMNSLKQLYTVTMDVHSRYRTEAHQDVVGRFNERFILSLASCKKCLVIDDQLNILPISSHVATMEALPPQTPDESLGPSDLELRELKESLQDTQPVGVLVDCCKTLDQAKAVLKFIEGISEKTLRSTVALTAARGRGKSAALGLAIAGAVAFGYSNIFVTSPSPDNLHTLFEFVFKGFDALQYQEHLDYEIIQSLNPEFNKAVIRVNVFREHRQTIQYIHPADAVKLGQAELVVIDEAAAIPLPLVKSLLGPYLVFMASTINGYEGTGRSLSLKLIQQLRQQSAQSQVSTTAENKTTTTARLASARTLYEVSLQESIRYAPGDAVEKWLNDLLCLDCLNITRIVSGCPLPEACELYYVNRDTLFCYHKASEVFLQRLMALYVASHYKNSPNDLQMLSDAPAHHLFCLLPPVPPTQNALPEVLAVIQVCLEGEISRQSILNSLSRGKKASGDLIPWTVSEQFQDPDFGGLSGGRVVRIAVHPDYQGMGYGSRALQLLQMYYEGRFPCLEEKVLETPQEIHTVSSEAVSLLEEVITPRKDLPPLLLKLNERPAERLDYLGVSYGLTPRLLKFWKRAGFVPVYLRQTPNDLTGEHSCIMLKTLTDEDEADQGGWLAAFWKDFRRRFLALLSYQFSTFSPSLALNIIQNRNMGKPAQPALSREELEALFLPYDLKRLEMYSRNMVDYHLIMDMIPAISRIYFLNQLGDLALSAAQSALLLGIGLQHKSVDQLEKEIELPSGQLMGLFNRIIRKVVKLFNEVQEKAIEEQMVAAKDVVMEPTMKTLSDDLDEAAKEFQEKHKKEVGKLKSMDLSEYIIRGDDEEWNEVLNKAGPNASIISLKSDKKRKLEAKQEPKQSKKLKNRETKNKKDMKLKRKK
Experiment: co-IP; endogenous proteins, cell lysate, Abcam Immunoprecipitation Kit, Protein A/G Sepharose beads, overnight at 4 °C; cells with or without 5-Fu

The chains behind the UniProt entries cited, without tags or fusion partners.
UniProt O95071: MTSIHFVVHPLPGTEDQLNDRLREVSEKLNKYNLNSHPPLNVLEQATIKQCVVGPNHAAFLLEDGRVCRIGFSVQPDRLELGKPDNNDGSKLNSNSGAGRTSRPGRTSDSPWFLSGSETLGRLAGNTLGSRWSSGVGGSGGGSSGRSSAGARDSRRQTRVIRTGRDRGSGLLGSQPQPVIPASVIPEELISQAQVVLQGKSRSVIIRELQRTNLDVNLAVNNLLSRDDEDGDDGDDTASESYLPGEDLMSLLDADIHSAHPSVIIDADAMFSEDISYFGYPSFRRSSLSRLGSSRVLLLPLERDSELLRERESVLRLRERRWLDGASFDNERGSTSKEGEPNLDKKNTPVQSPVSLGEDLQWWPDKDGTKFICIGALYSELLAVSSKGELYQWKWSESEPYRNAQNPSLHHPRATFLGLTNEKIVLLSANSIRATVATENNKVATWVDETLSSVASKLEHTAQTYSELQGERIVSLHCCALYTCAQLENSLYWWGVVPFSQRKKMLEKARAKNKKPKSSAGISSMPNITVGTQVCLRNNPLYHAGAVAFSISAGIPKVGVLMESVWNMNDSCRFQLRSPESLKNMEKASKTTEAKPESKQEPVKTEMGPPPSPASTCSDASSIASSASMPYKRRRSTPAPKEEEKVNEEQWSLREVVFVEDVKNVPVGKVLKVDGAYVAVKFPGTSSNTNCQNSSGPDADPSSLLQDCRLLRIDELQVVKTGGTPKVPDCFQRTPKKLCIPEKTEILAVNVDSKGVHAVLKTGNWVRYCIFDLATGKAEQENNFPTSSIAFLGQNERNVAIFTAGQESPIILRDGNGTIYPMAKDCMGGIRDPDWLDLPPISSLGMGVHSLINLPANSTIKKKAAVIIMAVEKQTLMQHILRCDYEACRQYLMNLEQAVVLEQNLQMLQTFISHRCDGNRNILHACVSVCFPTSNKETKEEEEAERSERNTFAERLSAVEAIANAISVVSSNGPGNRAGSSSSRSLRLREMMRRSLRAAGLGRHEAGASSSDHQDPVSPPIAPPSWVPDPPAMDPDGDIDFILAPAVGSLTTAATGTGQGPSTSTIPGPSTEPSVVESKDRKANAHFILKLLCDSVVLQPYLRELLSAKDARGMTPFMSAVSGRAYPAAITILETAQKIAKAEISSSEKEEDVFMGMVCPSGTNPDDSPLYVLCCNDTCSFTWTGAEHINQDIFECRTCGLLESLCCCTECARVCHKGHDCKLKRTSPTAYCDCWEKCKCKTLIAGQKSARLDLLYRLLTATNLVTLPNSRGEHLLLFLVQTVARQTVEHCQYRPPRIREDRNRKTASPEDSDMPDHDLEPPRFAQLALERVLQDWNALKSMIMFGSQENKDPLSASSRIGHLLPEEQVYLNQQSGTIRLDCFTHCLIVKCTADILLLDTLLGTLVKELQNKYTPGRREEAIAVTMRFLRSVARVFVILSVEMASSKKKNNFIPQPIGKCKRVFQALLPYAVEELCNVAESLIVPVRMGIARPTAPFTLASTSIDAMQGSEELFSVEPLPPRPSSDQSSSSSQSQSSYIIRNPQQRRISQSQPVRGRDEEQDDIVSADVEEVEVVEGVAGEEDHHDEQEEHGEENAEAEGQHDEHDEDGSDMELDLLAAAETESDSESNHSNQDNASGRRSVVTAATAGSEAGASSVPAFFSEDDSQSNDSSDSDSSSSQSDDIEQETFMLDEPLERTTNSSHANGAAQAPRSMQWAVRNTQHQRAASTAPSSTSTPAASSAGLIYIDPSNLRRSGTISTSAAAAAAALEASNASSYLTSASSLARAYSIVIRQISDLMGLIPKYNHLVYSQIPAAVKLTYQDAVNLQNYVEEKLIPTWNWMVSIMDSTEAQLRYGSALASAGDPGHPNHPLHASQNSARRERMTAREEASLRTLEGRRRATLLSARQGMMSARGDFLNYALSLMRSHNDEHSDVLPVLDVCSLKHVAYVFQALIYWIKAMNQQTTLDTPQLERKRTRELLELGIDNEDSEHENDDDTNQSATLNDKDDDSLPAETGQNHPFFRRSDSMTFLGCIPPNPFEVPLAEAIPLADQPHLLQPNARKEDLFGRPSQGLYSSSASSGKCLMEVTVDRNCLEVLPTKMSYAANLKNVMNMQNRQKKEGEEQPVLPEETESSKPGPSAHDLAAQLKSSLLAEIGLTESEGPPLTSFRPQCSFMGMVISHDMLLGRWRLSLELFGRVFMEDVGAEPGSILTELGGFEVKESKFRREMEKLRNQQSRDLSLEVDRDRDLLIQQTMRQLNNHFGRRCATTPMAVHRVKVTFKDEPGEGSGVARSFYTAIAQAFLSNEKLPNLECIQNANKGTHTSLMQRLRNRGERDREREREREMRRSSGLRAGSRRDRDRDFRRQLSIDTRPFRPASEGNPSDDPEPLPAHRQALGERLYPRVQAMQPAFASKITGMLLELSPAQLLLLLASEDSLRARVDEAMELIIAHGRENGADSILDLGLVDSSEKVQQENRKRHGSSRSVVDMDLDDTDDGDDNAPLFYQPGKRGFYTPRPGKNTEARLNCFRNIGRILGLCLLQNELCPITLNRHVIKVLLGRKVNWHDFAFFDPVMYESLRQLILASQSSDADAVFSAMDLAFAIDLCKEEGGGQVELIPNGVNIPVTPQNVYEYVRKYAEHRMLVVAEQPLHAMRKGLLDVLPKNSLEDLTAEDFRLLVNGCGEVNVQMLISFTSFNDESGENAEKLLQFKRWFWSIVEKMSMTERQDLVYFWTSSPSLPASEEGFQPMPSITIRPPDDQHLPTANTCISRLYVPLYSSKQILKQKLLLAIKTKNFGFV

binding: binds
Substance: Ubiquitin protein ligase E3 component n-recognin 5 (UBR5), endogenous (from UniProt O95071 1-2799)

Source: article PMC11792579
